Test results: US20030215913A1
Results are given in words; binding and its absence hold for the method and conditions named. Some entries that bind do so weakly or less than the wild type.

Sequences of proteins named here, by UniProt entry; tags and fusion partners are left off. Residues count along the entry.
UniProt P01137, residues 279-390: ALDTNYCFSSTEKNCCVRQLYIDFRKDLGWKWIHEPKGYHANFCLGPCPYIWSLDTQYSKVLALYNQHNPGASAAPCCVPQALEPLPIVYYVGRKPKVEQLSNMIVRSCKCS

Experiments:
Assay in all cases: BIAcore 2000 SPR, LP226 amine-coupled to CM5 chip, ligand injected
BMP-4 = target: T1, BMP-4 (UniProt P12644)
T1 sequence (looked up): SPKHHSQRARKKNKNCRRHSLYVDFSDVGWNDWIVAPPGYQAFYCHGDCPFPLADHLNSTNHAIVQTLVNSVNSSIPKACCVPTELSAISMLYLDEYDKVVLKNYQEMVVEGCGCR

TGF-beta 2 = target: T2, TGF-beta 2 (UniProt P61812)
T2 sequence (looked up): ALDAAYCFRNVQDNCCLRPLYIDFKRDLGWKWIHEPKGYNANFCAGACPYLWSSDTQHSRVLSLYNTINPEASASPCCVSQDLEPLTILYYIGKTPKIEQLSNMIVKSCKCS

TGF-beta 1 = TGF-beta 1 (UniProt P01137)

- binding (BMP-4): binds
- binding (TGF-beta 2): binds
- binding (TGF-beta 1): binds
B1: LP226 (protein)
chain: RARPDMFCLFHGKRYSPGESWHPYLEPQGLMYCLRCTCSEGAHVSCYRLHCPPVHCPQPVTEPQQCCPKCVEPHTPSGLRAPPKSCQHNGTMYQHGEIFSAHELFPSRLPNQCVLCSCTEGQIYCGLTTCPEPGCPAPLPLPDSCCQACKDEASEQSDEEDSVQSLHGVRHPQDPCSSDAGRKRGPGTPAPTGLSAPLSFIPRHFRPKGAGSTTVKIVLKEKHKKACVHGGKTYSHGEVWHPAFRAFGPLPCILCTCEDGRQDCQRVTCPTEYPCRHPEKVAGKCCKICPEDKADPGHSEISSTRCPKAPGRVLVHTSVSPSPDNLRRFALEHEASDLVEIYLWKLVKGIFHLTQIKKVRKQDFQKEAQHFRLLAGPHEGHWNVFLAQTLELKVTASPDKVTKT
